Data published in PMC10163288.
This is one part of the list.

B1: il10ra_site1_sap_17_mot_HHH_b1_05865_af2_000000211_0001_1_17_H_._HHH_b2_02858_af2_0001_0000800028_0000001_0_0001 (protein)
chain: SSSSDEENEEALELSVEAFRLALRGNPEEAREVLEEARRLAEELGNERLLEQIEELLRALNSSSS
B2: il10ra_site1_sap_13_mot_HHH_b1_06914_000000280_0001_1_18_H_._HHH_b1_07380_0001_0000200023_0000001_0_0001 (protein)
chain: SSSSSSREEVEELLEQAEELAERGNPEEANELLQEAVRIALEAGDEEALQAVWEVVRRLAKSSSS
B3: il10ra_site1_normal_mot_HHH_b1_02397_af2_000000085_0001_39_57_H_._HHH_b1_06802_af2_0001_0000500015_0000001_0 (protein)
chain: SSSSSEEEEELKELLKELRELVEEGDQEKIARLAQEVLRLAFRLNDEEALRFVWEVMRRLSSSSS
B4: il10ra_site1_normal_mot_HHH_b1_07641_af2_000000285_0001_1_21_H_._HHH_b2_07874_af2_0001_0000200011_0000001_0_1_af2pred_0001 (protein)
chain: SSSSSTEEAIRLLEEAAELLNNGDPEEAEEVAEEALEIAREAGDELLALSIEYLLELIRRSSSSS
B5: il10ra_site1_normal_mot_HHH_b2_01447_af2_000000258_0001_1_20_H_._HHH_b2_04530_0001_0000200013_0000002_0 (protein)
chain: SSSSTEDAQEVMELAREVSELDQEGDEEEAEEVLREAEEIAERHNNFVLRAALEHLRRVLSSSSS
B6: il10ra_site1_sap_15_mot_HHH_b1_03273_000000263_0001_1_14_H_._HHH_b2_00406_0001_0000500018_0000001_0_0001 (protein)
chain: SSSSSSDAEELLEEAEELLENGNPEEAIRAVQEAVRHAHQKRDEETLQLLWELVQEIASSSSSSS
B7: il10ra_site1_sap_18_mot_HHH_b2_01162_af2_000000234_0001_1_19_H_._HHH_b2_00001_0002_0000800077_0000001_0_0001 (protein)
chain: SSSSTIAEEAVRWLVHSLRRAKELGNEEYARAAARFLLAEARRVGDEEAEELAEEVLEELSSSSS
B8: il10ra_site1_sap_12_mot_6bb093d23f5042b6c551c363657da53b_0001_1_000000153_0001_51_65_H_._HHH_b2_02486_af2_0001_0001000052_0000001_0_0001_af2pred_0001 (protein)
chain: SSSSSAEELVRSALKAAKIAAENGDEEAVEKALKIAKQLAKANNDEELEKEIKRFEEELRSSSSS
B9: il10ra_site1_normal_mot_HHH_b1_04175_af2_000000064_0001_24_41_H_._HHH_b1_05042_0001_0000100011_0000001_0 (protein)
chain: SSSSDEELREEAEELLKEIRELIEEGDDERAAQLLLRVTRIAWELNDEELLQLIAELHELNSSSS
B10: il10ra_site1_sap_24_mot_HHH_b2_02053_af2_000000006_0001_3_19_H_._HHH_b1_02484_0001_0000200018_0000001_0_0001 (protein)
chain: SSSSNREVYELLRRAAEASHEGNLEEAEELVRKAVELAEELNNMVLLAVARYILKRIEELLSSSS
B11: il10ra_site1_sap_20_mot_HHH_b2_00943_af2_000000149_0001_1_17_H_._HHH_b2_02885_af2_0001_0000100001_0000001_0_0001 (protein)
chain: SSSSDEELEEVLRLILEAFRLALRGDEEEARKLLEEALEIAREINDERIAKMIEDLLKALSSSSS
B12: il10ra_site1_sap_28_mot_HHH_b2_00800_af2_000000047_0001_1_20_H_._HHH_b2_05061_0001_0000200029_0000001_0_0001_af2pred_0001 (protein)
chain: SSSSSEEVERVRRLLRKAIELARKGNPEEAEKVLEEAKEIAEEAGNELLRLLLEFAERLIKSSSS
B13: il10ra_site1_sap_18_mot_HHH_b1_06788_af2_000000238_0001_19_36_H_._HHH_b1_07121_0001_0000300019_0000002_0_0001 (protein)
chain: SSSSDEEELRELVEELVKELGLSEEAKRMLEISLERLLEMGQDEREIEEMLRFQARALKASSSSS
B14: il10ra_site1_sap_22_mot_HHH_b1_06789_af2_000000041_0001_1_20_H_._HHH_b2_02160_0001_0000200007_0000001_0_0001 (protein)
chain: SSSDERFEFIKKVIEEIIELLREGDKERAREVLERAREEAEELGNWVMRQVLEHLERVVERSSSS
B15: il10ra_site1_sap_28_mot_HHH_b1_01011_000000096_0001_1_19_H_._HHH_b2_03412_0002_0000100009_0000001_0_0001 (protein)
chain: SSSSDMEEELIRAVIRLLRELNDPEAVRRAEELLEQFEEEGDPEYFREVAQLLWEAARRFDSSSS
B16: il10ra_site1_sap_25_mot_HHH_b1_01879_000000050_0001_1_18_H_._HHH_b1_08444_0001_0000100004_0000001_0_0001 (protein)
chain: SSSSSTQELYELSRKAMELLRNGNPEEAEKLLEEALELAEEEGNWAAIVALRYILRAIRRSSSSS
B17: il10ra_site1_sap_26_mot_8756ee2cf497b5429c717dfc0c0bcfd6_0001_000000186_0001_1_13_H_._HHH_b2_06720_0001_0000100005_0000001_0_0001 (protein)
chain: SSSSDEEEIEELIKRIEELIEEGDQEEALRLLHELVELVAELNDEEALERIQELIQLIFQSSSSS
B18: il10ra_site1_sap_17_mot_HHH_b1_04558_af2_000000002_0001_38_52_H_._HHH_b2_08230_0001_0000100014_0000001_0_0001 (protein)
chain: SSSSSDEEYEEEVEELLEEAKRIEDREEVMRLLLRAIRLAYRAKDAELLRRIWEVLKELSSSSSS
B19: il10ra_site1_normal_mot_HHH_b2_06857_af2_000000179_0001_42_54_H_._HHH_b1_05676_af2_0001_0000100011_0000001_0 (protein)
chain: SSSSDETEEVVELLRRAAELHSDGDHEEARRLLEEAQELAEELGNELLRYQIEFAERSLDSSSSS
B20: il10ra_site1_normal_mot_8756ee2cf497b5429c717dfc0c0bcfd6_0001_000000186_0001_1_13_H_._HHH_b2_00624_0001_0000100003_0000003_0_af2pred_0001 (protein)
chain: SSSSSEEAEELFRLLREAAELHHEGNPEEARELLEEAEELAREAGDLNAEAVIRFLLELAGSSSS
B21: il10ra_site1_sap_18_mot_HHH_b2_01999_000000006_0001_1_18_H_._HHH_b2_08069_af2_0001_0000200010_0000001_0_0001 (protein)
chain: SSSSNAEYLIRQAAKAARLLLEAGDPEEAERALRIAERSAEQENNEELKEEIRRLEEEVRSSSSS
B22: il10ra_site1_sap_13_mot_HHH_b1_05329_000000008_0001_43_56_H_._HHH_b1_01872_af2_0001_0000100004_0000002_0_0001 (protein)
chain: SSSSDEKEELFRAIERLIRQALEWGDEESVEFMLLSLKMLAEELNDPELREITEELEELLNSSSS
B23: il10ra_site1_normal_mot_HHH_b1_06789_af2_000000041_0001_1_20_H_._HHH_b1_00090_af2_0001_0000500014_0000001_0_af2pred_dldesign_0_af2pred (protein)
chain: SSSSSGGRLMTEQALRAARILLEQGYPEEARRALDIARKLAEQLNDPELLARVRALEAELESSSS
B24: il10ra_site1_normal_mot_HHH_b1_00999_000000080_0001_41_55_H_._HHH_b1_06668_af2_0001_0000600034_0000001_0 (protein)
chain: SSSSSSDEREEAEELLEEAKEIEDPEEVSRIIQEALQLAYKANDKELLRELWEFVKKRGSSSSSS
B25: il10ra_site1_normal_mot_HHH_b1_05860_000000142_0001_1_19_H_._HHH_b1_06440_af2_0001_0000300014_0000002_0_af2pred_0001 (protein)
chain: SSSSDVEEVLRLLRRLAELLRENDQEEAKELIEEIEKLIEELNNPLLKFNLERLKRSLKLSSSSS
B26: il10ra_site1_normal_mot_fda5df8c19bda1ddfcc41857df859eb0_0001_1_000000120_0001_35_49_H_._HHH_b2_06918_0001_0000600067_0000001_0_af2pred_dldesign_0_af2pred (protein)
chain: SSSSSAALAARTTALAIEIANLYRAGRPEEARALADAGIAELTAAGDADGVARLQALLALLSSSS
B27: il10ra_site1_sap_15_mot_HHH_b2_00988_000000064_0001_1_19_H_._HHH_b2_07593_0001_0000100004_0000002_0_0001 (protein)
chain: SSSSSEEVYELSKEALELLAEGNPEEAEEVLEQARRLAEEAGDRVVLHNVRFALEDIERENSSSS
B28: il10ra_site1_normal_mot_HHH_b2_07442_000000239_0001_40_54_H_._HHH_b1_06779_0001_0000200029_0000001_0 (protein)
chain: SSSSDEAEEIYRLSREVAELDHEGDREEAERLLEEAIEYAEEVGNLVLLANLEFLRRLLESSSSS
B29: il10ra_site1_normal_mot_HHH_b2_00230_000000227_0001_1_19_H_._HHH_b1_00018_0001_0000200033_0000001_0 (protein)
chain: SSSSDEAYEIVREVIEELKELYEKNDPEALEELVEEARKELEEAGNEHAVISLEHFIRLILSSSS
B30: il10ra_site1_normal_mot_3af0db62db2b275566dae2e03bf881fa_0001_000000003_0001_37_50_H_._HHH_b1_08547_af2_0001_0000500007_0000001_0_af2pred_0001 (protein)
chain: SSSSSDLEREARALLYFAELAEEQGDPRAARIHLEFAEEIAEETGDEELLKEIRRLLEELSSSSS
B31: il10ra_site1_normal_mot_HHH_b1_03333_000000091_0001_1_17_H_._HHH_b2_04212_0001_0000200013_0000002_0 (protein)
chain: SSSSTEELYELVKKAIERAIELFRNGDPEQAEEVLEEILEEVEKRGNVNILISLEHLLRVLSSSS
B32: il10ra_site1_sap_17_mot_HHH_b1_06256_000000091_0001_42_58_H_._ems_3hM_3301_0001_0000200007_0000001_0_0001 (protein)
chain: SSSSSTEEEREEVEELLEEAKEITDPEERSKVLLEATRIAIQAQDPELLRLVWRVVKELGSSSSS
B33: il10ra_site1_normal_mot_HHH_b2_08186_000000021_0001_43_56_H_._HHH_b2_02616_0001_0000100008_0000001_0 (protein)
chain: SSSSDKEERLEELLEELERLLEEGDEQEFRRVAIEILRLAFELGDDEALKIVWELLKALASSSSS
B34: il10ra_site1_sap_20_mot_HHH_b2_00093_af2_000000025_0001_40_54_H_._HHH_b2_05679_0001_0000100006_0000001_0_0001_af2pred_0001 (protein)
chain: SSSSSIHERDVELALLAARLLAERGDPEAVREALELARRQAESTNNEELEELVEEVERELSSSSS
B35: il10ra_site1_sap_19_mot_HHH_b2_00479_000000091_0001_1_12_H_._HHH_b2_07972_0001_0000100015_0000002_0_0001 (protein)
chain: SSSSDEEQQEVLELLREAFELALRGNPEEAEKVLRRALELAEEIGDPRAFEMIENLLKALKSSSS
B36: il10ra_site1_normal_mot_HHH_b1_01563_af2_000000118_0001_40_54_H_._ems_3hM_198_af2_0001_0000200006_0000001_0 (protein)
chain: SSDEKEEVEELYEELKEAAEKRDEELISEVALKASRLALELGDQEILHQIWELFKKAIELARSSS
B37: il10ra_site1_normal_mot_HHH_b2_02337_000000026_0001_38_52_H_._HHH_b1_01793_0001_0000300034_0000001_0 (protein)
chain: SSSSSQEEVEELLEELERLLEEGDQERFSRLAQRIAQLAIRVNDPELLQRLWELVQEFARNSSSS

target: il10ra, Q13651; experiment: yeast display titration

Apparent Kd, inactive:
B1 no binding seen, B2 no binding seen, B3 no binding seen, B4 no binding seen, B5 no binding seen, B6 no binding seen, B7 no binding seen, B8 no binding seen, B9 no binding seen, B10 no binding seen, B11 no binding seen, B12 no binding seen, B13 no binding seen, B14 > 0.0405 µM, B15 no binding seen, B16 no binding seen, B17 no binding seen, B18 no binding seen, B19 no binding seen, B20 no binding seen, B21 no binding seen, B22 no binding seen, B23 no binding seen, B24 no binding seen, B25 no binding seen, B26 no binding seen, B27 no binding seen, B28 no binding seen, B29 no binding seen, B30 no binding seen, B31 no binding seen, B32 no binding seen, B33 no binding seen, B34 no binding seen, B35 no binding seen, B36 no binding seen, B37 no binding seen
